2 substances from article doi:10.1101/2021.02.26.433008 can be followed below.

Amino acid sequences for entries named in this document (tags omitted). Residues count along the entry.
UniProt P03186, residues 1-235: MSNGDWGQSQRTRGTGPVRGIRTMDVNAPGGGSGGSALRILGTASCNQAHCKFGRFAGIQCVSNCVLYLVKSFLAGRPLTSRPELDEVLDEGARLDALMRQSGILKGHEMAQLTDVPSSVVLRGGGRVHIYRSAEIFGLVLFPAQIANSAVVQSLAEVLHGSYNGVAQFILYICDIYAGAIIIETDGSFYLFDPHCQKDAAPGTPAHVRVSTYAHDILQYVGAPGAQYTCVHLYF
UniProt P11387: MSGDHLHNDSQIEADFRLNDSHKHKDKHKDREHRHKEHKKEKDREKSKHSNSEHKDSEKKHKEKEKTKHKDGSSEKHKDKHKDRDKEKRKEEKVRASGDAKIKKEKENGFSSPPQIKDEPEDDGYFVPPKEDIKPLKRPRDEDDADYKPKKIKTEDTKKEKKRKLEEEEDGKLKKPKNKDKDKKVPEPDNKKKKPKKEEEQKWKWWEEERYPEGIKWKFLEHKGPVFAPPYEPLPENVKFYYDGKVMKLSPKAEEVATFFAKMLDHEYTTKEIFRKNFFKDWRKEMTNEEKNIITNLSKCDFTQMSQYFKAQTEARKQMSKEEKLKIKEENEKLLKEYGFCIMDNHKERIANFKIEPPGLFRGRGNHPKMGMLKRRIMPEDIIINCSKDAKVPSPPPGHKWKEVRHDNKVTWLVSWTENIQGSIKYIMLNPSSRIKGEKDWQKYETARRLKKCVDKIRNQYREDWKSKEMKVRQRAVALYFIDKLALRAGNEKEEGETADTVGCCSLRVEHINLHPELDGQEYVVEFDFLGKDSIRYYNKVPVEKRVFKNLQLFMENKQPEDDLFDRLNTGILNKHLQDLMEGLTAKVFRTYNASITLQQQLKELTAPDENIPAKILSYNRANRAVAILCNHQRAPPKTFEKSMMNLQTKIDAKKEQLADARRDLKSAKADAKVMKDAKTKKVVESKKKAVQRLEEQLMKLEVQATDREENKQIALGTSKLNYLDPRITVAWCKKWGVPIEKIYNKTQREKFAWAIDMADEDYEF
UniProt Q02880: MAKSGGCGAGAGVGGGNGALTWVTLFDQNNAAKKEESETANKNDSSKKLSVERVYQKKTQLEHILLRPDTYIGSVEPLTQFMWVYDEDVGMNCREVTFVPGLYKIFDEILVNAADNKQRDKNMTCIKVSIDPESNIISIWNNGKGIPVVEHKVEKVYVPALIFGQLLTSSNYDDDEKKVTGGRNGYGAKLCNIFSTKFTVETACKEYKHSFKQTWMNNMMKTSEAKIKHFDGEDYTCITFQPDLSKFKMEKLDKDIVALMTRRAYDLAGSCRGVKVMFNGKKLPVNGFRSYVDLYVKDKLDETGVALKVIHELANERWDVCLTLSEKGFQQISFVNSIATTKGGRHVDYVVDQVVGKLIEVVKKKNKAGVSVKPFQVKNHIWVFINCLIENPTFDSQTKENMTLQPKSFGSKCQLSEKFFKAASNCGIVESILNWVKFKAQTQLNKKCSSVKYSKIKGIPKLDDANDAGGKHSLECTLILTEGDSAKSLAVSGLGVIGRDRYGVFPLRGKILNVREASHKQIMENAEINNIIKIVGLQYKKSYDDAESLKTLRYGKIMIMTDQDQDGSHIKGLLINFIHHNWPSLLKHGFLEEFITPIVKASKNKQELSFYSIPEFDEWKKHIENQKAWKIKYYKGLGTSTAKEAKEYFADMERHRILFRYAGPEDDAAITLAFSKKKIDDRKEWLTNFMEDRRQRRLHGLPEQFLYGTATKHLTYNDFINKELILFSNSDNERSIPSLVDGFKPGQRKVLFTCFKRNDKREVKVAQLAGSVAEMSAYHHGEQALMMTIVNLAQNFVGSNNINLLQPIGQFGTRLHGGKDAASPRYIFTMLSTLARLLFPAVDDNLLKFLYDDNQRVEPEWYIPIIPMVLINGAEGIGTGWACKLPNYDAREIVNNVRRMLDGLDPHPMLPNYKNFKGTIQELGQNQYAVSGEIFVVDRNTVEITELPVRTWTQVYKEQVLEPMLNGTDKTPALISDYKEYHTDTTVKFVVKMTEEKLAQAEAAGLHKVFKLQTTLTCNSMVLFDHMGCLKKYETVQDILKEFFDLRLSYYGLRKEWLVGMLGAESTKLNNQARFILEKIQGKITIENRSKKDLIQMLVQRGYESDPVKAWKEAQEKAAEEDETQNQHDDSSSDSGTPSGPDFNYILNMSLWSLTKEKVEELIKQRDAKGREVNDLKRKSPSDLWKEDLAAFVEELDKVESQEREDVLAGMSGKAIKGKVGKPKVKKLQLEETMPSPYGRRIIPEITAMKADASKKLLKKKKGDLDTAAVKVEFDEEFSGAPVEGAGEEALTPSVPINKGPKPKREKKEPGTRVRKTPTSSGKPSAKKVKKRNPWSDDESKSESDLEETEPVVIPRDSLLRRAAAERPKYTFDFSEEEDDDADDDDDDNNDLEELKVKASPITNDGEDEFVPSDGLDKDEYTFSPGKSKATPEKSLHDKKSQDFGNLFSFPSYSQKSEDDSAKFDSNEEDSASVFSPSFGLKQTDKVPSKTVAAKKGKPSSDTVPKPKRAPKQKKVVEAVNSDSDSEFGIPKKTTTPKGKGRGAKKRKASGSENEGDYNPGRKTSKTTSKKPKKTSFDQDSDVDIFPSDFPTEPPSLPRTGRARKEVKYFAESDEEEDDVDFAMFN

These are yes or no findings as the source states them, for the method shown. Binding seen in cells or lysates may run through a third protein. Some binding calls cover weakened binding; strength is not graded here.

For this assay, the target named is 3xFLAG-BPLF1 (amino acid 1-235), N-terminal domain of the EBV large tegument protein BPLF1 (Epstein-Barr virus) (UniProt P03186). Nature of the assay: co-IP.

For the substance “Topoisomerase I (TOP1), endogenous (from UniProt P11387 1-765) (enzyme)”, the binding result is “no binding”.

Turning to “Topoisomerase II beta (TOP2β), endogenous (from UniProt Q02880 1-1626) (enzyme)”, the binding result was “binds”.
